Source: PubChem BioAssay AID1224826 (NIAID, 2016)
Test: 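Knock-downs that raise or lower Tnf reporter signal after endotoxin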 (primary screen). Cells: RAW264.7 G9 macrophages from mouse bearing reporters for p65 (GFP) and the Tnf promoter (mCherry). Knock-down reagent: siRNA pool against mouse genes, 100 nM. Timing: 16 h of LPS stimulation, after 2 days of siRNA transfection. Conditions: bacterial lipopolysaccharide (Salmonella minnesota R595), 10 ng/ml. Measured: 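Nuclear mCherry signal of the Tnf promoter reporter measured by imaging after background removal, scaled to each plate median and turned into robust z-scores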. Direction: Tnf reporter robust z-score: higher = stronger Tnf promoter reporter signal after LPS. Rule for the call: 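a well counts as active at a score of -1.3 or below (Tlr4 knock-down control median) or above 3 (raised signal); controls and wells holding fewer than 50 cells are excluded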. Meaning of the calls: active = Tnf reporter clearly lowered or raised; inactive = no clear change in Tnf reporter.
Shown is an unselected part of about 17,000 reagents. About 1,110 of all reagents (6.6%) count as active. 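Active means lowered or raised reporter signal; replicate intensities are raw and not normalised per plate.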 Unmarked entries are inactive. Not all columns of the deposit are shown. Reagent sequences are not shown.

| target gene | Tnf reporter robust z-score | fewer than 50 cells in well |
| --- | --- | --- |
| Ulk2 | -0.73 | enough cells in well |
| Cpsf4 | -1.26 | enough cells in well |
| Dnaaf4 | -0.96 | enough cells in well |
| Ccdc120 | 0.56 | enough cells in well |
| Dbr1 | -0.18 | enough cells in well |
| Pnck | – | fewer than 50 cells per well; well left out of calls |
| Gde1 | -0.27 | enough cells in well |
| Srm | -0.96 | enough cells in well |
| Mrpl49 | 0.28 | enough cells in well |
| Mgat4b | -0.71 | enough cells in well |
| Vps28 | – | fewer than 50 cells per well; well left out of calls |
| Lrrc49 | 0.6 | enough cells in well |
| Rccd1 | -0.11 | enough cells in well |
| Fhl1 | 0.66 | enough cells in well |
| Zfp296 | 1.52 | enough cells in well |
| Ovol2 | 1.25 | enough cells in well |
| Parp9 | 0.3 | enough cells in well |
| Cdc14a | -0.39 | enough cells in well |
| Gm11545 | -0.56 | enough cells in well |
| Or4c3d | -0.52 | enough cells in well |
| Or5w12 | 0.24 | enough cells in well |
| Col9a1 | -0.32 | enough cells in well |
| Znhit2 | – | fewer than 50 cells per well; well left out of calls |
| Zbtb7a | 0.07 | enough cells in well |
| Or4e5 | 1.06 | enough cells in well |
| Ptprv | -0.67 | enough cells in well |
| Rps16 | -0.73 | enough cells in well |
| D2hgdh | 1.17 | enough cells in well |
| Lcorl | 1 | enough cells in well |
| Gng12 | -0.02 | enough cells in well |
| Pak4 | -0.72 | enough cells in well |
| Rgs1 | -0.93 | enough cells in well |
| Plekha6 | -0.93 | enough cells in well |
| Cmas | -1.04 | enough cells in well |
| Klhl2 | -1.14 | enough cells in well |
| Map3k7cl | 1.7 | enough cells in well |
| Ankrd54 | -0.38 | enough cells in well |
| Stx1a | -1.32 (active) | enough cells in well |
| Ddx28 | – | fewer than 50 cells per well; well left out of calls |
| Hus1b | 1 | enough cells in well |
| Phka2 | 1.36 | enough cells in well |
| Slain1 | 0.63 | enough cells in well |
| Lsg1 | -0.26 | enough cells in well |
| Capn3 | -0.41 | enough cells in well |
| Olfml2b | -0.41 | enough cells in well |
| Usp20 | -0.44 | enough cells in well |
| Kcnh1 | -0.43 | enough cells in well |
| H2bc6 | 0.53 | enough cells in well |
| Gna15 | -0.27 | enough cells in well |
| Gpr82 | 0.56 | enough cells in well |
| Ackr2 | -0.93 | enough cells in well |
| Pex7 | 0.28 | enough cells in well |
| Zdhhc1 | -0.21 | enough cells in well |
| Atp1b3 | -1.49 (active) | enough cells in well |
| Mtbp | 2 | enough cells in well |
| Auh | -0.83 | enough cells in well |
| Rhox4b | 3.53 (active) | enough cells in well |
| Osgepl1 | – | fewer than 50 cells per well; well left out of calls |

Entries above with an active call:
| target gene | Tnf reporter robust z-score | fewer than 50 cells in well |
| --- | --- | --- |
| Stx1a | -1.32 (active) | enough cells in well |
| Atp1b3 | -1.49 (active) | enough cells in well |
| Rhox4b | 3.53 (active) | enough cells in well |
